Reference: the supplement of paper PMC10849652
Some of the results follow.

By UniProt entry, the sequences of proteins in these tests, tags left out. Where a name states a change or a piece, a line headed by the entry shows the natural chain unless it says otherwise.
UniProt Q6PCE3: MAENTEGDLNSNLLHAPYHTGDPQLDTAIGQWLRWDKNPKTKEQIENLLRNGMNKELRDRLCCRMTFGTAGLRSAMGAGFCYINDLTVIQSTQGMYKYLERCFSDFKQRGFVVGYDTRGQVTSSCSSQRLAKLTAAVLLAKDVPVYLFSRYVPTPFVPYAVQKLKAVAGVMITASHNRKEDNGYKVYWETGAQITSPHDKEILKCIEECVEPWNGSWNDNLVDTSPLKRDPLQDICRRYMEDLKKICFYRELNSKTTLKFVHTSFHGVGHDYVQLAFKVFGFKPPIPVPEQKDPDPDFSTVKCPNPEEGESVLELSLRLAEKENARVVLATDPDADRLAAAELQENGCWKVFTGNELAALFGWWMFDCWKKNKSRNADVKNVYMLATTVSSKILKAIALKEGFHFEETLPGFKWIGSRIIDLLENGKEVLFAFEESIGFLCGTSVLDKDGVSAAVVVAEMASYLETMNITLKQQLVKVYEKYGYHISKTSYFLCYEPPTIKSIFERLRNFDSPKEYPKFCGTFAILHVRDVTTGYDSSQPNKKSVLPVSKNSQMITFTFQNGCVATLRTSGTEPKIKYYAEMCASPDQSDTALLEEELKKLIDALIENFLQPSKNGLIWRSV
UniProt Q15149: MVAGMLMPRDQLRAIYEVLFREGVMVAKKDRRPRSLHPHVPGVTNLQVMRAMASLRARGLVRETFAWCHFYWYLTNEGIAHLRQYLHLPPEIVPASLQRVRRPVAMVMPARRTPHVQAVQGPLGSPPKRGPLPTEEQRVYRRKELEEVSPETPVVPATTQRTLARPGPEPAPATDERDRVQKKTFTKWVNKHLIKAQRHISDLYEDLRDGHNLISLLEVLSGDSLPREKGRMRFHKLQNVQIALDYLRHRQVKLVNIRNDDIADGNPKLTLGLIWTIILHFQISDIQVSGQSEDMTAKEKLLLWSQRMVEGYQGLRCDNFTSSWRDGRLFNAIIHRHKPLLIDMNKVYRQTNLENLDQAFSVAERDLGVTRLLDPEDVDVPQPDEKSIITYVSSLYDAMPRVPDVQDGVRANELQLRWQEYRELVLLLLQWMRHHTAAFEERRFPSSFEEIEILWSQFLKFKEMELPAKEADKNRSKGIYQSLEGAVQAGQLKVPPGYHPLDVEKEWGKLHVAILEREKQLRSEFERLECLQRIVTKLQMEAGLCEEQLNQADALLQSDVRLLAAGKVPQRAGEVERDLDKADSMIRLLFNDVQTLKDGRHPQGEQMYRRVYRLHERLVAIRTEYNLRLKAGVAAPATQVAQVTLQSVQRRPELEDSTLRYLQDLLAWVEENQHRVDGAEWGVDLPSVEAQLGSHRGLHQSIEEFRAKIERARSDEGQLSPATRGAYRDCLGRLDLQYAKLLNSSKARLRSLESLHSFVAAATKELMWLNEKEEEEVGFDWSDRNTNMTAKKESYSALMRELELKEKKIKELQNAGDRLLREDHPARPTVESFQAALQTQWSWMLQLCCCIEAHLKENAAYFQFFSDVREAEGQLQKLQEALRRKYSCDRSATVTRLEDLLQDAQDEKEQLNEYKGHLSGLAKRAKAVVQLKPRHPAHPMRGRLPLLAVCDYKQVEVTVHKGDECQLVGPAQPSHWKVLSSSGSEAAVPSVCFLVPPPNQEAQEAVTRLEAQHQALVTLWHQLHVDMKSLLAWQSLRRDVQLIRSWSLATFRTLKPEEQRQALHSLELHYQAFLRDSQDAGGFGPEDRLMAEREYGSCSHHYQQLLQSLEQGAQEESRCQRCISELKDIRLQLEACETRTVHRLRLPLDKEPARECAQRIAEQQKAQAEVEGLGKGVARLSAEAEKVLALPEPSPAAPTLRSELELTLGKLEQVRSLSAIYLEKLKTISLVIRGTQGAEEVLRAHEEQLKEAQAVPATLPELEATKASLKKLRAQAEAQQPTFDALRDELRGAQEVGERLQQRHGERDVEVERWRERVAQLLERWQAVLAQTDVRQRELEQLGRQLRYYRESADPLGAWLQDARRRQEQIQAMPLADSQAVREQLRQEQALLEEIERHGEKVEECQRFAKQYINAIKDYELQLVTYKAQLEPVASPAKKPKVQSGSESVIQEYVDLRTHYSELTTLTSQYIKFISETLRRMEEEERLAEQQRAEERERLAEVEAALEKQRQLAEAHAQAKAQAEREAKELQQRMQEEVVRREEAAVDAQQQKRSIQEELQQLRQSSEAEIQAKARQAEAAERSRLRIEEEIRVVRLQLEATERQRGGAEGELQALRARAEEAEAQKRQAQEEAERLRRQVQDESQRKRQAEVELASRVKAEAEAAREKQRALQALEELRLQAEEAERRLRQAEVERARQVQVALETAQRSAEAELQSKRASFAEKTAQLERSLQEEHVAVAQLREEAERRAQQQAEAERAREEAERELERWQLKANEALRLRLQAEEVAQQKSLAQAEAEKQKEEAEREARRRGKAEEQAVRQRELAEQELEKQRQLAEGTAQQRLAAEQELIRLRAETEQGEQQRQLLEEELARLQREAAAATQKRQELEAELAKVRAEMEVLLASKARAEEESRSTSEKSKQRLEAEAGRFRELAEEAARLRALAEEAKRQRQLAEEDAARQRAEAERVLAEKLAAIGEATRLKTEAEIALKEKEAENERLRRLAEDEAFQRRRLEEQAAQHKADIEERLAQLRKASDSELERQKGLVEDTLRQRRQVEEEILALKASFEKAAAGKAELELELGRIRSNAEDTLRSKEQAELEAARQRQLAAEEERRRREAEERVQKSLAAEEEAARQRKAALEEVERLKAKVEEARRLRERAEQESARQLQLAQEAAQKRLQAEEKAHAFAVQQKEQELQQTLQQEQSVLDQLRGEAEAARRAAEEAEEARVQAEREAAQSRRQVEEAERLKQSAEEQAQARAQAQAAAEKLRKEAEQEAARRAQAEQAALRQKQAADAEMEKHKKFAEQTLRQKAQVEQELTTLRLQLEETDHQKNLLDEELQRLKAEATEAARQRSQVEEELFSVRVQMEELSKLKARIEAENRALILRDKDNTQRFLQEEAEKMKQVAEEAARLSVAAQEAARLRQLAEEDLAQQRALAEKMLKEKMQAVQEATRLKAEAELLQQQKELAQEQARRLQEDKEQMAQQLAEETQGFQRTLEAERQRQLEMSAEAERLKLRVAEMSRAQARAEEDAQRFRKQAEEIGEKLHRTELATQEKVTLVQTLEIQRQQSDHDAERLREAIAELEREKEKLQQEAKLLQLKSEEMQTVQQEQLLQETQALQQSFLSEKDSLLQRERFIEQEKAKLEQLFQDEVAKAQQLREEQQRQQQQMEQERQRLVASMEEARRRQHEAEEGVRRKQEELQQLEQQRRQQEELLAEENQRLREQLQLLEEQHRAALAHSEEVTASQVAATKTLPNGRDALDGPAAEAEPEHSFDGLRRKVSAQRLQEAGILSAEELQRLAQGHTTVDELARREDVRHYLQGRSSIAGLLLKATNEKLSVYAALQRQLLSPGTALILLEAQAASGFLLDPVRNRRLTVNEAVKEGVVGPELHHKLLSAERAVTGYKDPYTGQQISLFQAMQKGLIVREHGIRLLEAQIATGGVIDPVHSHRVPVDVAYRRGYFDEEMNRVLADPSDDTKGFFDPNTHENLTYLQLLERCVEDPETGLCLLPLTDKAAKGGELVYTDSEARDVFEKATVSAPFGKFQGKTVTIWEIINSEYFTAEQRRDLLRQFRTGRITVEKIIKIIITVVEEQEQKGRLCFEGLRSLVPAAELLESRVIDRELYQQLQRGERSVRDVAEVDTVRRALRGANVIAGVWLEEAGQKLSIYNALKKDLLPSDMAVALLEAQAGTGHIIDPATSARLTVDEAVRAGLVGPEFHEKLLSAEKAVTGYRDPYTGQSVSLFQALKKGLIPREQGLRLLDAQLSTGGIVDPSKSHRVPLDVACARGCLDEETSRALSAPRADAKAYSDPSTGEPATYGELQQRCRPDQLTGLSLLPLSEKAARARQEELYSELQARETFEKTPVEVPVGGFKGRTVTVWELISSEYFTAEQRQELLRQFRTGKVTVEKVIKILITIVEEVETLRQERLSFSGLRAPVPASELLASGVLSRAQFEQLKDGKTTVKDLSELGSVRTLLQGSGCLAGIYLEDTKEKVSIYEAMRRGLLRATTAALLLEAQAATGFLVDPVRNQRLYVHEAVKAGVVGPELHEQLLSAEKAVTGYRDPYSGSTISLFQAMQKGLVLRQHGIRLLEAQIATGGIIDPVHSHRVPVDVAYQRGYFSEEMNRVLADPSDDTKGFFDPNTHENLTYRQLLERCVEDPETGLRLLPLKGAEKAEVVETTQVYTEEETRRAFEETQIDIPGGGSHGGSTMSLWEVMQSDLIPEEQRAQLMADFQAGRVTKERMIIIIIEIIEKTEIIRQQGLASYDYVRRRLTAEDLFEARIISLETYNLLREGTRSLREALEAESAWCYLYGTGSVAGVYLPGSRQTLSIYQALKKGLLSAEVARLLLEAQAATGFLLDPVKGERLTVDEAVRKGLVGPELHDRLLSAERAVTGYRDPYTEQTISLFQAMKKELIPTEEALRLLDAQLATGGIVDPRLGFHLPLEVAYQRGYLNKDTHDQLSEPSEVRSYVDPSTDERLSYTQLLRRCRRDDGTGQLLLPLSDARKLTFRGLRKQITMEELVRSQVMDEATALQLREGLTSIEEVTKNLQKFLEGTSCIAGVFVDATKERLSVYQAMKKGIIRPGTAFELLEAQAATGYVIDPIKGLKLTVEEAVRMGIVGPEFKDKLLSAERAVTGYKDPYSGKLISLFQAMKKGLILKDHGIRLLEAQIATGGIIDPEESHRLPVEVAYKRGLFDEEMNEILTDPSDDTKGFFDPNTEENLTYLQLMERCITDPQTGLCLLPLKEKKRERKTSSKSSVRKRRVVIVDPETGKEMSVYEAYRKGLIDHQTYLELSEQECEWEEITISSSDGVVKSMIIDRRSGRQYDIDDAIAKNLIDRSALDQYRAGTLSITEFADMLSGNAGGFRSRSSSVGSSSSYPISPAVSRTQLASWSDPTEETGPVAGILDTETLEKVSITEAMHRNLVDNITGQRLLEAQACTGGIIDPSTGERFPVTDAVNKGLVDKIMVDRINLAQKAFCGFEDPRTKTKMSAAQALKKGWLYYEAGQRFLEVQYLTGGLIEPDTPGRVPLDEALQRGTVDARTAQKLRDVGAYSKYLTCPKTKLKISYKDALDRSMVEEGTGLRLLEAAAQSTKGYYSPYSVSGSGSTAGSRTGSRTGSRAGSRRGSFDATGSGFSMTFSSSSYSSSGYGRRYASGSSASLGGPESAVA
UniProt Q969N2: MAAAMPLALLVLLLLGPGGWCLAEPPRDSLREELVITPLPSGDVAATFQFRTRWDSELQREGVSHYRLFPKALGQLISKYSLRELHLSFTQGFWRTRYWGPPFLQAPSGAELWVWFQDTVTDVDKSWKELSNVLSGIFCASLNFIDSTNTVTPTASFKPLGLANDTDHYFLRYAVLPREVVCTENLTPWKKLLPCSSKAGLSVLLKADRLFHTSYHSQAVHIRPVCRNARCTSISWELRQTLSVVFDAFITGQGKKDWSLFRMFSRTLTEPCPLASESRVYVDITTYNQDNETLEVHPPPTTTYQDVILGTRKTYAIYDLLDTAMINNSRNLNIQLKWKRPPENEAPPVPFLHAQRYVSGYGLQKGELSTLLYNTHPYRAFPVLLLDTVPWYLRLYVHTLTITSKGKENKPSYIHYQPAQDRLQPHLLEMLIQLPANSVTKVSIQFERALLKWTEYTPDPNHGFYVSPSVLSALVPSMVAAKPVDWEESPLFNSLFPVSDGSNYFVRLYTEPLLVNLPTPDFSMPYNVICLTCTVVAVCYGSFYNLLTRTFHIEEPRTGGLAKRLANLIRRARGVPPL
UniProt Q8NHP8: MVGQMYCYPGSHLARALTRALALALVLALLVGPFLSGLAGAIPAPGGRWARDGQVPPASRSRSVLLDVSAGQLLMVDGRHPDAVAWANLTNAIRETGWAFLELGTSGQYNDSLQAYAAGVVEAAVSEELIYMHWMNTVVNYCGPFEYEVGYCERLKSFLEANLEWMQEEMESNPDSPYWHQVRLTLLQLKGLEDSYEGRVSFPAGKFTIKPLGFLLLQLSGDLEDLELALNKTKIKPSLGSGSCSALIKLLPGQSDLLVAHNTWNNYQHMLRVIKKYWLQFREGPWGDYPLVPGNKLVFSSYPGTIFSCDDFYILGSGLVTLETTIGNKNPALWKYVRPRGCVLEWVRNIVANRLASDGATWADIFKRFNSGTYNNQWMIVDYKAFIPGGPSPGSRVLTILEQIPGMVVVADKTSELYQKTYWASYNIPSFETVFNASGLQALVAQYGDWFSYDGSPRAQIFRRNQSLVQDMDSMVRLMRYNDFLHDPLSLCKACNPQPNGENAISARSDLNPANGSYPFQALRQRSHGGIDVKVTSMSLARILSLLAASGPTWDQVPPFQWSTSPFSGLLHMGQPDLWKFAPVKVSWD

Legend:
Assay in all cases: log2 fold change, soluble protein after heating vs DMSO (PISA); higher = thermal stabilisation; K562 lysate, 10 uM; active = over 0.2 and 3.5 SD of the protein, either way, in both replicates (recomputed)
ibrutinib = compound: C=CC(=O)N1CCC[C@@H](n2nc(-c3ccc(Oc4ccccc4)cc3)c3c(N)ncnc32)C1 [ibrutinib]
Outline: (§1)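 The values are log-two fold changes in thermal stability compared with solvent controls and come from duplicates. They were obtained by TMTpro 16plex LC-MS/MS, with channel sums equalised, on the supernatant after 21,000xg for 90 min. That supernatant came from crude K562 extract at 1 mg/mL protein treated with 10 μM compound for 30 min, heated for 3 min across 48°C-58°C, pooled and brought to 0.5% NP-40 at 4°C.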

[1] = compound: CC(=O)c1cnc2ccc(-c3cc(Cl)c(O)c(Cl)c3)nc2c1N[C@H]1CC[C@H](CN(C)C)CC1
Outline: as §1

ralimetinib = compound: CC(C)(C)Cn1c(N)nc2ccc(-c3[nH]c(C(C)(C)C)nc3-c3ccc(F)cc3)nc21 [ralimetinib]
Outline: as §1

[2] = compound: CC(C)(O)CC(=O)NCCn1ccc2ncnc(Nc3ccc(Oc4cccc(C(F)(F)F)c4)c(Cl)c3)c21
Outline: as §1

[3] = compound: CC(C)C1=C2N=C(C=C(N2N=C1)NCC3=CC=CC=C3)NCCCCCCN
Outline: as §1

[4] = compound: CC1=C(C(CC(=O)N1)C2=CC=C(C=C2)C(F)(F)F)C(=O)NC3=C(C=C4C(=C3)C=NN4)F
Outline: as §1

[5] = compound: CC1=C(C2=C(C=C1)C(=O)C3=CC=CC=C3N2CCCN)C
Outline: as §1

[6] = compound: CC1=C(C=C(C=C1)NC(=O)C2=CC(=CC=C2)C(C)(C)C#N)NC3=CC4=C(C=C3)N=CN(C4=O)C
Outline: as §1

[7] = compound: CC1=C(C=C(C=C1)NC(=O)C2=CC(=CC=C2)N(C)C)NC(=O)C3=CC=C(C=C3)O
Outline: as §1

[8] = compound: CC1=CC=C(C=C1)SC2=C3C=C(SC3=CN=C2)C(=O)N
Outline: as §1

vemurafenib = compound: CCCS(=O)(=O)Nc1ccc(F)c(C(=O)c2c[nH]c3ncc(-c4ccc(Cl)cc4)cc23)c1F [vemurafenib]
Outline: as §1

[9] = compound: CCCS(=O)(=O)Nc1ccc(F)c(C(=O)c2c[nH]c3ncc(Cl)cc23)c1F
Outline: as §1

barasertib = compound: CCN(CCCOc1ccc2c(Nc3cc(CC(=O)Nc4cccc(F)c4)[nH]n3)ncnc2c1)CCOP(=O)(O)O [barasertib]
Outline: as §1

[10] = compound: CC[C@@H]1C(=O)N(C)c2cnc(Nc3ccc(C(=O)NC4CCN(C)CC4)cc3OC)nc2N1C1CCCC1
Outline: as §1

volasertib = compound: CC[C@@H]1C(=O)N(C)c2cnc(Nc3ccc(C(=O)N[C@H]4CC[C@H](N5CCN(CC6CC6)CC5)CC4)cc3OC)nc2N1C(C)C [volasertib]
Outline: as §1

[11] = compound: CCn1c(C(=O)N(C2CC2)C2CC2)cc2c3c(ncn3C)c(Nc3cc(C)n(C)n3)nc21
Outline: as §1

[12] = compound: CCn1cc(-c2ccnc3[nH]c(-c4cccc(CN(C)C)c4)cc23)c(-c2ccc(NC(=O)N(C)C)cc2)n1
Outline: as §1

[13] = compound: CN1CCC(CNc2ccc3ncc(-c4cccc(OC(F)(F)F)c4)n3n2)CC1
Outline: as §1

saracatinib = compound: CN1CCN(CCOc2cc(OC3CCOCC3)c3c(Nc4c(Cl)ccc5c4OCO5)ncnc3c2)CC1 [saracatinib]
Outline: as §1

sotrastaurin = compound: CN1CCN(c2nc(C3=C(c4c[nH]c5ccccc45)C(=O)NC3=O)c3ccccc3n2)CC1 [sotrastaurin]
Outline: as §1

Measured: log2 fold change

PGM2L1 (UniProt Q6PCE3)
inactive: ibrutinib -0.025 | [1] -0.025 | ralimetinib -0.003 | [2] -0.05 | [3] -0.036 | [4] 0 | [5] -0.034 | [6] 0.001 | [7] 0.016 | [8] -0.002 | vemurafenib 0.017 | [9] 0.003 | barasertib 0 | [10] 0.002 | volasertib 0.015 | [11] -0.044 | [12] -0.048 | [13] 0.029 | saracatinib -0.034 | sotrastaurin 0.025

PLEC (UniProt Q15149)
inactive: ibrutinib 0.005 | [1] 0.001 | ralimetinib 0.044 | [2] 0.02 | [3] -0.001 | [4] 0.012 | [5] 0.104 | [6] -0.023 | [7] 0.051 | [8] -0.008 | vemurafenib 0.013 | [9] 0.002 | barasertib 0.021 | [10] -0.022 | volasertib -0.024 | [11] 0.011 | [12] -0.042 | [13] -0.008 | saracatinib 0.15 | sotrastaurin 0

PLA2G4B isoform 6 (UniProt P0C869)
inactive: ibrutinib -0.029 | [1] -0.046 | ralimetinib -0.17 | [2] -0.15 | [3] 0 | [4] -0.047 | [5] -0.149 | [6] 0.34 | [7] -0.005 | [8] -0.052 | vemurafenib 0.05 | [9] 0.069 | barasertib 0.002 | [10] 0.144 | volasertib 0.018 | [11] -0.191 | [12] 0.034 | [13] -0.014 | saracatinib 0.101 | sotrastaurin -0.168

Taken from the entries so far (2 entries):
PGM2L1 (UniProt Q6PCE3)
inactive: ibrutinib -0.025 | [1] -0.025 | ralimetinib -0.003 | [2] -0.05 | [3] -0.036 | [4] 0 | [5] -0.034 | [6] 0.001 | [7] 0.016 | [8] -0.002 | vemurafenib 0.017 | [9] 0.003 | barasertib 0 | [10] 0.002 | volasertib 0.015 | [11] -0.044 | [12] -0.048 | [13] 0.029 | saracatinib -0.034 | sotrastaurin 0.025

PLEC (UniProt Q15149)
inactive: ibrutinib 0.005 | [1] 0.001 | ralimetinib 0.044 | [2] 0.02 | [3] -0.001 | [4] 0.012 | [5] 0.104 | [6] -0.023 | [7] 0.051 | [8] -0.008 | vemurafenib 0.013 | [9] 0.002 | barasertib 0.021 | [10] -0.022 | volasertib -0.024 | [11] 0.011 | [12] -0.042 | [13] -0.008 | saracatinib 0.15 | sotrastaurin 0

The list goes on.

PITRM1 isoform 2 (UniProt Q5JRX3)
inactive: ibrutinib 0.007 | [1] -0.004 | ralimetinib 0.134 | [2] -0.009 | [3] -0.019 | [4] 0.001 | [5] -0.021 | [6] -0.001 | [7] -0.005 | [8] 0.012 | vemurafenib -0.026 | [9] 0.001 | barasertib -0.01 | [10] -0.018 | volasertib 0.127 | [11] -0.008 | [12] 0.07 | [13] -0.048 | saracatinib -0.021 | sotrastaurin 0.007

PLCG1 isoform 2 (UniProt P19174)
inactive: ibrutinib -0.013 | [1] -0.011 | ralimetinib 0.005 | [2] -0.021 | [3] -0.015 | [4] 0.02 | [5] -0.013 | [6] 0.027 | [7] 0.031 | [8] 0.014 | vemurafenib -0.035 | [9] 0.016 | barasertib 0.032 | [10] -0.096 | volasertib -0.073 | [11] 0.004 | [12] -0.159 | [13] 0.077 | saracatinib 0.004 | sotrastaurin -0.004

PIGT (UniProt Q969N2)
inactive: ibrutinib 0.048 | [1] 0.059 | ralimetinib -0.008 | [2] -0.079 | [3] -0.021 | [4] 0.029 | [5] 0.004 | [6] -0.022 | [7] 0.009 | [8] 0.014 | vemurafenib 0.05 | [9] 0.02 | barasertib 0.014 | [10] -0.026 | volasertib -0.013 | [11] 0 | [12] -0.097 | [13] 0.01 | saracatinib 0.012 | sotrastaurin 0.014

PLBD2 (UniProt Q8NHP8)
inactive: ibrutinib 0.036 | [1] -0.043 | ralimetinib 0.022 | [2] -0.044 | [3] 0.413 | [4] -0.025 | [5] -0.004 | [6] -0.033 | [7] -0.004 | [8] 0.005 | vemurafenib 0.023 | [9] 0.011 | barasertib 0.013 | [10] -0.099 | volasertib 0.022 | [11] 0.013 | [12] 0 | [13] 0.076 | saracatinib -0.025 | sotrastaurin 0.024

PHF6 (UniProt Q8IWS0)
inactive: ibrutinib 0.03 | [1] -0.076 | ralimetinib -0.025 | [2] 0.019 | [3] 0.297 | [4] -0.04 | [5] -0.037 | [6] 0.017 | [7] -0.001 | [8] 0.022 | vemurafenib -0.014 | [9] 0.026 | barasertib -0.037 | [10] -0.055 | volasertib -0.033 | [11] 0.031 | [12] 0.173 | [13] -0.027 | saracatinib 0.006 | sotrastaurin -0.058
